{
  "source": "the supplement of paper PMC8728848",
  "binders": {"B1": {"name": "AT1G80310(18) (Arabidopsis thaliana), Q0WP36 (protein)", "chain": "METTTTPLLPGDRSRCGWLRRRLRLKNPLSSELSGAVGDLGTFIPIVLTLTLVSNLDLSTTLIFTGFYNIATGLLFDIPMPVQPMKSIAAVAVSESPHLTPSQIAAAGASTAATLLLLGATGAMSFLYNIIPLPVVRGVQLSQGLQFAFTAIKYVRFNYDTATLKPSSSPRIWLGLDGLILALAALLFIILSTGSGNDREAEDGDLAETSSNESQSRRRRLRLLSSIPSALIVFALGLVLCFIRDPSIFKDLKFGPSKFHILRISWDDWKIGFLRAAIPQIPLSVLNSVIAVCKLSNDLFDKELSATTVSISVGVMNLIGCWFGAMPVCHGAGGLAGQYRFGARSGLSVIFLGIGKLIVGLVFGNSFVRILSQFPIGILGVLLLFAGIELAMASKDMNSKEDSFIMLVCAAVSMTGSSAALGFGCGVVLYLLLKLRTLDCSSVTLFSRSSDESQVDSEAAPRDV"}},
  "assay_in_all_cases": "glycan array binding signal (z-score within array); higher = stronger binding",
  "settings_in_all_cases": "glycan notation: IUPAC condensed, linker removed",
  "key": {"[1]": {"molecular_target": "Gal3S4S(b1-4)GlcNAc", "how_it_was_run": "(§1)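 The Consortium for Functional Glycomics database supplied 3228 glycan arrays, of which those lacking an available protein sequence were dropped. The binding signal, a within-array Z-score, was averaged across arrays of the same protein sequence and across linkers. Negative scores can be read as non-binding.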"}, "[2]": {"molecular_target": "Gal3S6S(b1-4)GlcNAc", "how_it_was_run": "as §1"}, "[3]": {"molecular_target": "Gal3S6S(b1-4)GlcNAc6S", "how_it_was_run": "as §1"}, "[4]": {"molecular_target": "Gal4S(b1-4)GlcNAc", "how_it_was_run": "as §1"}, "[5]": {"molecular_target": "Gal4S6S(b1-4)GlcNAc", "how_it_was_run": "as §1"}, "[6]": {"molecular_target": "Gal6P(b1-4)GlcNAc", "how_it_was_run": "as §1"}, "[7]": {"molecular_target": "Gal6S(b1-3)GlcNAc", "how_it_was_run": "as §1"}, "[8]": {"molecular_target": "Gal6S(b1-3)GlcNAc6S", "how_it_was_run": "as §1"}, "[9]": {"molecular_target": "Gal6S(b1-4)Glc", "how_it_was_run": "as §1"}, "[10]": {"molecular_target": "Gal6S(b1-4)Glc6S", "how_it_was_run": "as §1"}, "[11]": {"molecular_target": "Gal6S(b1-4)GlcNAc", "how_it_was_run": "as §1"}, "[12]": {"molecular_target": "Gal6S(b1-4)GlcNAc6S", "how_it_was_run": "as §1"}, "[13]": {"molecular_target": "GalNAc(a1-3)Gal", "how_it_was_run": "as §1"}, "[14]": {"molecular_target": "GalNAc(a1-3)GalNAc", "how_it_was_run": "as §1"}, "[15]": {"molecular_target": "GalNAc(a1-3)GalNAc(b1-3)Gal(a1-4)Gal(b1-4)Glc", "how_it_was_run": "as §1"}, "[16]": {"molecular_target": "GalNAc(a1-3)GalNAc(b1-3)Gal(a1-4)Gal(b1-4)GlcNAc", "how_it_was_run": "as §1"}, "[17]": {"molecular_target": "GalNAc(b1-3)Gal", "how_it_was_run": "as §1"}, "[18]": {"molecular_target": "GalNAc(b1-3)Gal(a1-4)Gal(b1-4)GlcNAc", "how_it_was_run": "as §1"}, "[19]": {"molecular_target": "GalNAc(b1-3)Gal(a1-4)Gal(b1-4)GlcNAc(b1-3)Gal(b1-4)Glc", "how_it_was_run": "as §1"}, "[20]": {"molecular_target": "GalNAc(b1-3)Gal(a1-6)Gal(b1-4)Glc", "how_it_was_run": "as §1"}, "[21]": {"molecular_target": "GalNAc(b1-3)GalNAc", "how_it_was_run": "as §1"}, "[22]": {"molecular_target": "GalNAc(b1-3)GlcNAc", "how_it_was_run": "as §1"}, "[23]": {"molecular_target": "GalNAc(b1-4)Gal(b1-4)Glc", "how_it_was_run": "as §1"}, "[24]": {"molecular_target": "GalNAc(b1-4)GlcNAc", "how_it_was_run": "as §1"}, "[25]": {"molecular_target": "GalNAc(b1-4)GlcNAc(b1-2)Man", "how_it_was_run": "as §1"}, "[26]": {"molecular_target": "GalNAc(b1-4)GlcNAc(b1-2)Man(a1-3)[GalNAc(b1-4)GlcNAc(b1-2)Man(a1-6)]Man(b1-4)GlcNAc(b1-4)GlcNAc", "how_it_was_run": "as §1"}, "[27]": {"molecular_target": "GalNAc(b1-4)GlcNAc(b1-3)GalNAc(b1-4)GlcNAc", "how_it_was_run": "as §1"}, "[28]": {"molecular_target": "GalNAc(b1-4)GlcNAc6S", "how_it_was_run": "as §1"}, "[29]": {"molecular_target": "GalNAc(b1-6)GalNAc", "how_it_was_run": "as §1"}, "[30]": {"molecular_target": "GalNAc3S(b1-4)GlcNAc", "how_it_was_run": "as §1"}, "[31]": {"molecular_target": "GalNAc3S(b1-4)GlcNAc3S", "how_it_was_run": "as §1"}, "[32]": {"molecular_target": "GalNAc3S(b1-4)[Fuc(a1-3)]GlcNAc", "how_it_was_run": "as §1"}, "[33]": {"molecular_target": "GalNAc4S6S(b1-4)GlcNAc", "how_it_was_run": "as §1"}, "[34]": {"molecular_target": "GalNAc6S(b1-4)GlcNAc", "how_it_was_run": "as §1"}, "[35]": {"molecular_target": "Glc(a1-4)Glc", "how_it_was_run": "as §1"}, "[36]": {"molecular_target": "Glc(a1-4)Glc(a1-4)Glc(a1-4)Glc", "how_it_was_run": "as §1"}, "[37]": {"molecular_target": "Glc(a1-6)Glc(a1-6)Glc", "how_it_was_run": "as §1"}, "[38]": {"molecular_target": "Glc(a1-6)Glc(a1-6)Glc(a1-6)Glc", "how_it_was_run": "as §1"}},
  "note": "The other results are listed elsewhere or left out.",
  "data": [
    {"binder": "B1", "values": [
      {"measurement": "glycan array binding signal (z-score)", "setting": "[1]", "value": 1.21},
      {"measurement": "glycan array binding signal (z-score)", "setting": "[2]", "value": -0.318},
      {"measurement": "glycan array binding signal (z-score)", "setting": "[3]", "value": 0.953},
      {"measurement": "glycan array binding signal (z-score)", "setting": "[4]", "value": 0.699},
      {"measurement": "glycan array binding signal (z-score)", "setting": "[5]", "value": -0.208},
      {"measurement": "glycan array binding signal (z-score)", "setting": "[6]", "value": 0.119},
      {"measurement": "glycan array binding signal (z-score)", "setting": "[7]", "value": -0.548},
      {"measurement": "glycan array binding signal (z-score)", "setting": "[8]", "value": -0.805},
      {"measurement": "glycan array binding signal (z-score)", "setting": "[9]", "value": 0.071},
      {"measurement": "glycan array binding signal (z-score)", "setting": "[10]", "value": -0.35},
      {"measurement": "glycan array binding signal (z-score)", "setting": "[11]", "value": 1.14},
      {"measurement": "glycan array binding signal (z-score)", "setting": "[12]", "value": -1.07},
      {"measurement": "glycan array binding signal (z-score)", "setting": "[13]", "value": 1.2},
      {"measurement": "glycan array binding signal (z-score)", "setting": "[14]", "value": -0.595},
      {"measurement": "glycan array binding signal (z-score)", "setting": "[15]", "value": -0.103},
      {"measurement": "glycan array binding signal (z-score)", "setting": "[16]", "value": 1.26},
      {"measurement": "glycan array binding signal (z-score)", "setting": "[17]", "value": -0.065},
      {"measurement": "glycan array binding signal (z-score)", "setting": "[18]", "value": -0.42},
      {"measurement": "glycan array binding signal (z-score)", "setting": "[19]", "value": -0.794},
      {"measurement": "glycan array binding signal (z-score)", "setting": "[20]", "value": -0.826},
      {"measurement": "glycan array binding signal (z-score)", "setting": "[21]", "value": 1.02},
      {"measurement": "glycan array binding signal (z-score)", "setting": "[22]", "value": 0.16},
      {"measurement": "glycan array binding signal (z-score)", "setting": "[23]", "value": 0.883},
      {"measurement": "glycan array binding signal (z-score)", "setting": "[24]", "value": 3.09},
      {"measurement": "glycan array binding signal (z-score)", "setting": "[25]", "value": -0.717},
      {"measurement": "glycan array binding signal (z-score)", "setting": "[26]", "value": -0.392},
      {"measurement": "glycan array binding signal (z-score)", "setting": "[27]", "value": -0.307},
      {"measurement": "glycan array binding signal (z-score)", "setting": "[28]", "value": -0.579},
      {"measurement": "glycan array binding signal (z-score)", "setting": "[29]", "value": -0.556},
      {"measurement": "glycan array binding signal (z-score)", "setting": "[30]", "value": -0.831},
      {"measurement": "glycan array binding signal (z-score)", "setting": "[31]", "value": -0.55},
      {"measurement": "glycan array binding signal (z-score)", "setting": "[32]", "value": -0.652},
      {"measurement": "glycan array binding signal (z-score)", "setting": "[33]", "value": 3.56},
      {"measurement": "glycan array binding signal (z-score)", "setting": "[34]", "value": 2.89},
      {"measurement": "glycan array binding signal (z-score)", "setting": "[35]", "value": -0.658},
      {"measurement": "glycan array binding signal (z-score)", "setting": "[36]", "value": -0.815},
      {"measurement": "glycan array binding signal (z-score)", "setting": "[37]", "value": 1.9},
      {"measurement": "glycan array binding signal (z-score)", "setting": "[38]", "value": -0.389}
    ]}
  ]
}
